From the supplement of paper PMC12823440, “Inhibitors supercharge kinase turnover through native proteolytic circuits” (Nature, 2025)
This is one part of the list. The calls rarely recur for the same compound in another form.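 In K562 cells expressing nanoluciferase-fused kinases, luminescence was recorded at 4 h intervals between 2 and 18 h, normalized as percent of control with DMSO at 100% and a positive control at 0%. A significant (2 sigma) signal drop marks a time point as decreased. The authors' rule for a hit is not shown and takes in more than the number of time points.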

The chains behind the UniProt entries cited, without tags or fusion partners. Where a name states a change or a piece, a line headed by the entry shows the natural chain unless it says otherwise.
UniProt P10398: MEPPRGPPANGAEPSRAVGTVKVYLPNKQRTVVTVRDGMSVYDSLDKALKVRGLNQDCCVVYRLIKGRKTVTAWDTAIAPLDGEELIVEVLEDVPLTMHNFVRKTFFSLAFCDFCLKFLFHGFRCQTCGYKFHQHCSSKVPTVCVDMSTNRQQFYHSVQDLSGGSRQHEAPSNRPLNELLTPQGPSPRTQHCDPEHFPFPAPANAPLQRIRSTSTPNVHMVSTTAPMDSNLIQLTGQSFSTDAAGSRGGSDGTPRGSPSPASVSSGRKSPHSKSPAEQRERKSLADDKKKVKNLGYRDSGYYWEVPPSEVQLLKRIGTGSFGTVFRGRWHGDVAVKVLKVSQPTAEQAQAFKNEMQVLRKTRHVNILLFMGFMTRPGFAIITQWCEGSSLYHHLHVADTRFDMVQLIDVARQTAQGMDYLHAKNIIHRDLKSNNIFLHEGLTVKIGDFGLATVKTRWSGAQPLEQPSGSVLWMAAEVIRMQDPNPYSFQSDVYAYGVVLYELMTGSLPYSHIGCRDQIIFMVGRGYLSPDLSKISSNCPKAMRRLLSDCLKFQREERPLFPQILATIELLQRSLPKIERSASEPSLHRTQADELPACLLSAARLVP

What follows are compounds tested against ARAF (UniProt P10398) (assay: kinase-Nluc reporter destabilization hit call (1 = scored as downregulated) (binary); higher = compound decreases kinase abundance). Conditions: K562; 2-18 h.

kinase-Nluc reporter destabilization hit call, inactive:
CC(CCc1ccccn1)(CCc1ccccn1)C(=O)c1ccccc1 (10 µM) 0
COc1cc(-c2cc(-c3cc(OC)c(OC)c(OC)c3)cc(C(F)P(=O)(OCOC(=O)C(C)(C)C)OCOC(=O)C(C)(C)C)c2)cc(OC)c1OC (stereo not drawn) [Stafia-1-dipivaloyloxymethyl ester] (2.5 µM) 0
CC1(N)CCN(c2cnc3c(-c4cccc(Cl)c4Cl)[nH]nc3n2)CC1 (2.5 µM) 0
CC(C)(O)[C@@H]1CC[C@](C)([C@H]2[C@@H](O)C[C@@]3(C)[C@@H]4C[C@H](O[C@@H]5O[C@H](CO)[C@@H](O)[C@H](O)[C@H]5O)[C@H]5C(C)(C)[C@@H](O[C@@H]6OC[C@@H](O)[C@H](O)[C@H]6O[C@@H]6O[C@H](CO)[C@@H](O)[C@H](O)[C@H]6O)CC[C@@]56C[C@@]46CC[C@]23C)O1 [Astragaloside VI] (10 µM) 0
Cc1nc(NC(=O)NCCc2nnn(CCF)n2)sc1-c1ccc(S(C)(=O)=O)c(F)c1 (10 µM) 0
CCN(C)C(=O)c1ccc2c(C(=Nc3ccc(CN4CCCCC4)cc3)c3ccccc3)c(O)[nH]c2c1 (2.5 µM) 0
CC(=O)Nc1nc(C)c(-c2nc(N3CCCC(O)C3)no2)s1 (stereo not drawn) (10 µM) 0
COc1c(O)cc2oc3cc(O)c(CC=C(C)C)c(O)c3c(=O)c2c1CCC(C)(C)O [Garcinone D] (2.5 µM) 0
